The targets with a hit were mostly taken out for another list; the other results follow. This is a noisy data set. The entries are a selection whose mix differs from that of the whole data set.
Compound: COC(=O)/C=C/c1ccccc1 [methyl cinnamate]
Assay: log2 ratio of iodoacetamide-alkyne labeling of the cysteine site, DMSO over compound (competition); higher = stronger covalent engagement of the cysteine by the compound, active = 1 or more
Conditions: 500 µM; treatment time 1 h; system: HEK293T cell lysate
Procedure, shortened: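 Electrophile (500 µM) or vehicle was added to HEK293T lysate (2 mg/mL) for 1 h at ambient temperature before iodoacetamide alkyne labelling (1 h) and click coupling to sCIP-TMT reagents. After pooling, overnight trypsin digestion at 37 °C, streptavidin enrichment and acid elution, peptides were measured by Orbitrap Eclipse LC-MS/MS with FAIMS and quantified in FragPipe. Each cysteine's log2 competition ratio compares mean control-channel with mean compound-channel reporter intensity, control over compound. Data came from duplicate channels across three replicates, excluding cysteines quantified in only one replicate.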

Chains of the proteins cited; added tags and fusions are not shown. Lines headed by an entry give the natural chain unless they say otherwise; changes in a name come on top.
UniProt Q15393: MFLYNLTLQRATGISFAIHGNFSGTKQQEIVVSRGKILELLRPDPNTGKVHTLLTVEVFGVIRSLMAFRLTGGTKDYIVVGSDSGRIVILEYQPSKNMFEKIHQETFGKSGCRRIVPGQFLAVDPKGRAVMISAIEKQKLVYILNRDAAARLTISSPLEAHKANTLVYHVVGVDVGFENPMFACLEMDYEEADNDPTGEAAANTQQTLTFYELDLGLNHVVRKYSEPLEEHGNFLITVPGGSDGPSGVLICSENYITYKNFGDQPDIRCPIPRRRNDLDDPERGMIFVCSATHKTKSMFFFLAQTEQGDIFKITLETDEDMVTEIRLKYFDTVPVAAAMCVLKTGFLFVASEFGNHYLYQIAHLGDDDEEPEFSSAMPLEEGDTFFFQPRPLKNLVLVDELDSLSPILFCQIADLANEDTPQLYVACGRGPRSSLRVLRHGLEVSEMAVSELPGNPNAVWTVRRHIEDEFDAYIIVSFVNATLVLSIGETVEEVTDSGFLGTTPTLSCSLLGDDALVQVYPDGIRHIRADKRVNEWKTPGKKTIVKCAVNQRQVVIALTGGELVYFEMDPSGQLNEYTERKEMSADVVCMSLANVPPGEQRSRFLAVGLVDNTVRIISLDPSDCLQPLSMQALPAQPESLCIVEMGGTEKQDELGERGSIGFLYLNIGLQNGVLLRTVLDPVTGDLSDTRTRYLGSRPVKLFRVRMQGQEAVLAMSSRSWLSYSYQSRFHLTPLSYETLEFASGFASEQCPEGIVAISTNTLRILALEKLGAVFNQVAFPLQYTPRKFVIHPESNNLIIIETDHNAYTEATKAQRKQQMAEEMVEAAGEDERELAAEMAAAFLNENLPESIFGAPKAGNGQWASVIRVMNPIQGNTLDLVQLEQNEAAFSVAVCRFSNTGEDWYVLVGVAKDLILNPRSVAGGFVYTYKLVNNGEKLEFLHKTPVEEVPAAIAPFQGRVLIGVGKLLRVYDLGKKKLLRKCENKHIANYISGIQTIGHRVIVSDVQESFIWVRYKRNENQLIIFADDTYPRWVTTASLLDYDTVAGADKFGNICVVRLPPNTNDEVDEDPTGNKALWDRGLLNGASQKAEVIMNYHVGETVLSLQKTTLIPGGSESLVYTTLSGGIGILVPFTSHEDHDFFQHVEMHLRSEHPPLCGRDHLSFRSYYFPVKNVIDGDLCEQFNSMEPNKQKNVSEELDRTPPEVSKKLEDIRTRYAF
UniProt Q2NL82: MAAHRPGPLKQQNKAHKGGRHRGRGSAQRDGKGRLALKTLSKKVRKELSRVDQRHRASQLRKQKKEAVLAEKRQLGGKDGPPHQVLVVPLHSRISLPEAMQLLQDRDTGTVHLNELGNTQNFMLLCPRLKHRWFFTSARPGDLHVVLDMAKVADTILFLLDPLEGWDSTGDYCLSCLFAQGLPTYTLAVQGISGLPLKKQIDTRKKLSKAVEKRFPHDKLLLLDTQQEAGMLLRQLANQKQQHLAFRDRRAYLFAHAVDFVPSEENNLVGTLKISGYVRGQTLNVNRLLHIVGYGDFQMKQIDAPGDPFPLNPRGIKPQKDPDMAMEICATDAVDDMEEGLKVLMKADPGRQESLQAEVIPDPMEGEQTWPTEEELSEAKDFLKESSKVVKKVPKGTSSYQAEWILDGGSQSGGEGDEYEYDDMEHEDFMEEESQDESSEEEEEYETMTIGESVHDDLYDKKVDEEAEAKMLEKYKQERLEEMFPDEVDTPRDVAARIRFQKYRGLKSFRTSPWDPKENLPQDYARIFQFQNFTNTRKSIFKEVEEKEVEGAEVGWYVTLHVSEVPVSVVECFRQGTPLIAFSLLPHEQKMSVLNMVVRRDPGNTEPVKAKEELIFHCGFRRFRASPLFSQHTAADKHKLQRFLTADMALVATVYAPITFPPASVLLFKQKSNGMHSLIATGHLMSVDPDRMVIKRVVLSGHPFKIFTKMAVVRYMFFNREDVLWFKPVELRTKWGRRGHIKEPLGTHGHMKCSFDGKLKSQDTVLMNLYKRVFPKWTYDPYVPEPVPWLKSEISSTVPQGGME
UniProt Q16543: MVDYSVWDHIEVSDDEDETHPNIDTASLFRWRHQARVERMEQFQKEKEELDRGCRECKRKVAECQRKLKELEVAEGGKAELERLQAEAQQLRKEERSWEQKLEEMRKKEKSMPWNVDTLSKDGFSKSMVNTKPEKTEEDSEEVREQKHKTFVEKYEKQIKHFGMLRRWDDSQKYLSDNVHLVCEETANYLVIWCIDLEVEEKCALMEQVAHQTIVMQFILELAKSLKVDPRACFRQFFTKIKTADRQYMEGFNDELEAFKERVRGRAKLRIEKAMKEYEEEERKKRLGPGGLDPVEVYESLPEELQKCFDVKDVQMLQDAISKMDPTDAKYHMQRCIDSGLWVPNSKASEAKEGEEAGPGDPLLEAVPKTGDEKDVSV
UniProt Q15154: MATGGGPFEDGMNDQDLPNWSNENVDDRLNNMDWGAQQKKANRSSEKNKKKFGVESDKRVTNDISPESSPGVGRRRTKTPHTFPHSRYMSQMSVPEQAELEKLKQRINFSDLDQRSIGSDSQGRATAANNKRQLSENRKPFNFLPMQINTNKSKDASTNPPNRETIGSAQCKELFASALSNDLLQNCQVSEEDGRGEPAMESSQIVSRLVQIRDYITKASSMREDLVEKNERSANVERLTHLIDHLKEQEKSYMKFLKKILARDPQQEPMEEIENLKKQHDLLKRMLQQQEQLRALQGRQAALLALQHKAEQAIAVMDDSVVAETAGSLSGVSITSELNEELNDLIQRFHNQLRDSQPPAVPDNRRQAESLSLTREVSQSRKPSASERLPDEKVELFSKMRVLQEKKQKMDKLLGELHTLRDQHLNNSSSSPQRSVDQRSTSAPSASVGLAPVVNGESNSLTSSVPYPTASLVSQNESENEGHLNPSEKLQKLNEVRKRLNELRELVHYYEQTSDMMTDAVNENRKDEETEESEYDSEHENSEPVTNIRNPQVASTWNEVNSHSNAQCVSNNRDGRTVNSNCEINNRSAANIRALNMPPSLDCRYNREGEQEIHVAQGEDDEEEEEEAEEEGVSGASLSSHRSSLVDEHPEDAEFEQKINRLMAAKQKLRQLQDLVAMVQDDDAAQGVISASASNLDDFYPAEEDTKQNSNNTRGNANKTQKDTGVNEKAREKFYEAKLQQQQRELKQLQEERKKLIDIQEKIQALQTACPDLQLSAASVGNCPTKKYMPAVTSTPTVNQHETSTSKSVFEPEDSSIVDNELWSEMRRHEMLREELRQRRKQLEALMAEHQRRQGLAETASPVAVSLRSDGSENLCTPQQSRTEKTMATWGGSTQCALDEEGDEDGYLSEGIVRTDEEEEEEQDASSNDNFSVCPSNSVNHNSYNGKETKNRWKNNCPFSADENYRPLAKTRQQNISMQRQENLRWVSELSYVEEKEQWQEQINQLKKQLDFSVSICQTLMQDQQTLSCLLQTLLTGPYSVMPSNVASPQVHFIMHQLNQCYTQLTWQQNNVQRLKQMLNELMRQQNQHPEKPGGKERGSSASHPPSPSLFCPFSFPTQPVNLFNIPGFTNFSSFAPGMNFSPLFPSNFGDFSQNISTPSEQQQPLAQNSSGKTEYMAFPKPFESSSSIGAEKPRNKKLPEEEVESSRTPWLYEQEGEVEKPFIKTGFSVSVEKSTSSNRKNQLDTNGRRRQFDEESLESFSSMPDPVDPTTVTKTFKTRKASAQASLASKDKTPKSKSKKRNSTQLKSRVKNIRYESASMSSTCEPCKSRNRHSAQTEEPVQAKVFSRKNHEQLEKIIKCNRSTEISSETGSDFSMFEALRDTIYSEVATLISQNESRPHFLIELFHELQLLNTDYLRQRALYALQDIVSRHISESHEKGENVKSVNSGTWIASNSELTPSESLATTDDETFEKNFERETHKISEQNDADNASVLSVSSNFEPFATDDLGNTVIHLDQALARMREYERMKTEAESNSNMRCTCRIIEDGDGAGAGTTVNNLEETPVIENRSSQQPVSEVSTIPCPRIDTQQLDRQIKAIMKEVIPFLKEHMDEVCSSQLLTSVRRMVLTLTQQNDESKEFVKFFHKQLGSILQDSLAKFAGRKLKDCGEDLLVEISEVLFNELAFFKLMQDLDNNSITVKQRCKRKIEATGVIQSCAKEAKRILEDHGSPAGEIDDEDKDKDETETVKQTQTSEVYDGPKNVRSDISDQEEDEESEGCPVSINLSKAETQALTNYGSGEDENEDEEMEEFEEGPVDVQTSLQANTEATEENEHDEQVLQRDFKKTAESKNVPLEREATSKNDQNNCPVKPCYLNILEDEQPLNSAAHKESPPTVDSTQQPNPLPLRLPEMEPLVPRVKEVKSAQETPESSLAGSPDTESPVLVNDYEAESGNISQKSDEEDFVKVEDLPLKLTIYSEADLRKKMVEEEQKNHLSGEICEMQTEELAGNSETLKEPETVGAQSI
UniProt Q15334: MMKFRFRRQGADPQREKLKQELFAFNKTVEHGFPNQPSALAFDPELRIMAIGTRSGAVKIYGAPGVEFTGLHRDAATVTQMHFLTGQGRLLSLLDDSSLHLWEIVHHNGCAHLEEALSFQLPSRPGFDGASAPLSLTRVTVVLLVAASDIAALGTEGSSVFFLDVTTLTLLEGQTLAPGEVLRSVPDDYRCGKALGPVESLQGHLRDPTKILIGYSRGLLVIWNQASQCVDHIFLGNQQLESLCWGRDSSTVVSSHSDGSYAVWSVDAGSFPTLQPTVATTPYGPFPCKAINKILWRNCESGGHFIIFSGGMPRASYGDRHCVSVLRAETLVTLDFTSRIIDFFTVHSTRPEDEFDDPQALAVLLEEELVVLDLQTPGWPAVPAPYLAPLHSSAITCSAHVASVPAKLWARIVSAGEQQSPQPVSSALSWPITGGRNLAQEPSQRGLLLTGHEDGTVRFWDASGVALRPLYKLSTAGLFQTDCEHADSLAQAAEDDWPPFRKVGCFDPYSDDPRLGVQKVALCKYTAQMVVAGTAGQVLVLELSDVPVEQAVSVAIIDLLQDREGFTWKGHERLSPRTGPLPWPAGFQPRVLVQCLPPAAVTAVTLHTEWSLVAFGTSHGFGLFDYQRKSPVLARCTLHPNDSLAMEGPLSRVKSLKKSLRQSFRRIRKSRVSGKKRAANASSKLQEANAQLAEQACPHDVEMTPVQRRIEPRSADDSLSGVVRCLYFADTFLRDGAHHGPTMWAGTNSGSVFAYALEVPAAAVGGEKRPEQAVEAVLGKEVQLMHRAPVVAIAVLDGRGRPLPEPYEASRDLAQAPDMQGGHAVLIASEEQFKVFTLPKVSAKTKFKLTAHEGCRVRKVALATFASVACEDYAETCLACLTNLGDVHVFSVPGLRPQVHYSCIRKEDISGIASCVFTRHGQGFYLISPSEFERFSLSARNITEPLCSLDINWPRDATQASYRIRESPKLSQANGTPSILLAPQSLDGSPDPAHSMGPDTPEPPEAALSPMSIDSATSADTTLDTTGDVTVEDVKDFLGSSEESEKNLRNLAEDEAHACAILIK
UniProt Q2TAA2: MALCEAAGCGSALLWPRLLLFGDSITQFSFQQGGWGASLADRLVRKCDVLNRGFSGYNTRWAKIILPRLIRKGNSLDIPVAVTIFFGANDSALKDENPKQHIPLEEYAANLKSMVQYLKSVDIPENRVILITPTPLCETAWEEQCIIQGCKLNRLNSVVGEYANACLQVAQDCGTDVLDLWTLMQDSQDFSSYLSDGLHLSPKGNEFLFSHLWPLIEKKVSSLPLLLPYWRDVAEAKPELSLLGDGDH
UniProt Q15061: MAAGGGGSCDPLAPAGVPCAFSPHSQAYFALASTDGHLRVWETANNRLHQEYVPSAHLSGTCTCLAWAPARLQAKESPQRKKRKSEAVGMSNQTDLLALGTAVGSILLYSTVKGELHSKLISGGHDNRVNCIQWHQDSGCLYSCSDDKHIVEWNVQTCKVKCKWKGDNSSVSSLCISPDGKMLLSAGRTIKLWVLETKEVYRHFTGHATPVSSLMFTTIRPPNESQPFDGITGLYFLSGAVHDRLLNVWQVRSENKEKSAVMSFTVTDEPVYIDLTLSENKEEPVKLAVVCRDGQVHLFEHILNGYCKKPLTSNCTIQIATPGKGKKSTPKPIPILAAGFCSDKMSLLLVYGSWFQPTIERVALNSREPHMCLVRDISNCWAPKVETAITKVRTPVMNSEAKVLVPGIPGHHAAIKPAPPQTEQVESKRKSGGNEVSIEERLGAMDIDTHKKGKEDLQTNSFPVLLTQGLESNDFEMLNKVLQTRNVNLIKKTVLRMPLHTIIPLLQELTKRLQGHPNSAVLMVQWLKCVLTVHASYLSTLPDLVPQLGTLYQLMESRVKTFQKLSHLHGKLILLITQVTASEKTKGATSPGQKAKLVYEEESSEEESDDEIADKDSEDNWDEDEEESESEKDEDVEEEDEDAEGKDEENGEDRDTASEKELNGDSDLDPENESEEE

Target	log2 ratio of iodoacetamide-alkyne labeling
EIF4H C85 (UniProt Q15056)	inactive: -0.132
SF3B3 C1156 (UniProt Q15393)	inactive: 0.0525
EEA1 C1402 (UniProt Q15075)	inactive: 0.124
TSR1 C329 (UniProt Q2NL82)	inactive: 0.061
SAFB C404 (UniProt Q15424)	inactive: 0.387
CDC37 C308 (UniProt Q16543)	inactive: 0.0968
PCM1 C876 (UniProt Q15154)	inactive: 0.151
PDS5A C92 (UniProt Q29RF7)	inactive: -0.079
TARBP2 C282 (UniProt Q15633)	inactive: 0.255
LLGL1 C636 (UniProt Q15334)	inactive: 0.322
UniProt Q4ZIN3_C129	inactive: 0.131
LLGL1 C725 (UniProt Q15334)	inactive: 0.117
SURF2 C111 (UniProt Q15527)	inactive: 0.231
PTPN14 C1082 (UniProt Q15678)	inactive: -0.00302
LRRFIP1 C14 (UniProt Q32MZ4)	inactive: 0.147
RBBP7 C277 (UniProt Q16576)	inactive: 0.00508
IAH1 C4 (UniProt Q2TAA2)	inactive: 0.429
GLYR1 C303 (UniProt Q49A26)	inactive: 0.207
WDR43 C9 (UniProt Q15061)	inactive: 0.271
SETDB1 C1226 (UniProt Q15047)	inactive: 0.305
LLGL1 C947 (UniProt Q15334)	inactive: -0.182
